Source: PubChem BioAssay AID1053208 (Peter MacCallum Cancer Centre, 2014)
Test: 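Synthetic lethal interactions between gene loss and doxorubicin in osteosarcoma cells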 (primary screen). System: mouse osteosarcoma cells, early-passage culture from an engineered mouse model of fibroblastic bone tumour. Reagents: siRNA pool against mouse genes, 40 nM. Duration: about 120 h (48 h before drug, then 72 h with drug). Treatment: doxorubicin 100 nM for 72 h, roughly 30-40% inhibitory dose. Detection: 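Luminescent ATP signal taken as viability with or without 100 nM doxorubicin for 72 h; mean of two wells set against non-targeting siRNA and turned into robust z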. Scale: viability z-score with doxorubicin: higher = more viable cells under doxorubicin; viability z-score without drug: higher = more viable cells with knock-down alone. Active means: 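a pool counts as active when its viability z-score with doxorubicin is -2 or below and its z-score without drug lies between -2 and 2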.
The deposit covers about 17,000 reagents; this is a part drawn at random. 788 of them (4.7%) were called active. 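Calls rest on z-score classes alone; an extra cut-off of viability at most 70% of control was not applied to them.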 Reagents against one gene are numbered here. Further read-outs or replicates are left out here.

Gene	pool no.	combined z-score class	viability z-score with doxorubicin	viability z-score without drug	outcome
H1f1 (H1.1 linker histone, cluster member)	1	no change with or without drug	1.24	-0.17	inactive
Eif2b3 (eukaryotic translation initiation factor 2B, subunit 3)	1	low cell count with doxorubicin only	-2.47	-1.18	active
Or1e16 (olfactory receptor family 1 subfamily E member 16)	1	no change with or without drug	0.22	-0.17	inactive
Snrk (SNF related kinase)	1	high cell count with and without drug	2.47	2.53	inactive
Ptprcap	1	no change with or without drug	0.9	-0.34	inactive
Pdx1 (pancreatic and duodenal homeobox 1)	1	no change with or without drug	0.11	0	inactive
Slc35c1	1	no change with or without drug	-0.22	1.52	inactive
Slc19a1	1	no change with or without drug	-1.01	0.17	inactive
Cpsf4 (cleavage and polyadenylation specific factor 4)	1	low cell count without drug only	-1.46	-2.02	inactive
Npdc1 (neural proliferation, differentiation and control 1)	1	no change with or without drug	0.22	-0.34	inactive
D3Ertd751e (DNA segment, Chr 3, ERATO Doi 751, expressed)	1	no change with or without drug	0	0.34	inactive
Zfp462 (zinc finger protein 462)	1	no change with or without drug	-0.45	1.18	inactive
Capsl (calcyphosine-like)	1	no change with or without drug	0.56	-0.34	inactive
Dmwd (dystrophia myotonica-containing WD repeat motif)	1	no change with or without drug	-0.56	-0.51	inactive
Gstp1 (glutathione S-transferase, pi 1)	1	no change with or without drug	1.12	0.17	inactive
Eif3e (eukaryotic translation initiation factor 3, subunit E)	1	low cell count with and without drug	-3.37	-3.2	inactive
Or10ag58 (olfactory receptor family 10 subfamily AG member 58)	1	no change with or without drug	-0.67	-0.17	inactive
Mecom (MDS1 and EVI1 complex locus)	1	no change with or without drug	-0.45	0.51	inactive
Mecom (MDS1 and EVI1 complex locus)	2	no change with or without drug	-0.9	-0.17	inactive
Nubp1 (nucleotide binding protein 1)	1	no change with or without drug	0.34	0	inactive
B3gat1 (beta-1,3-glucuronyltransferase 1)	1	no change with or without drug	0.56	0.51	inactive
Wdr17 (WD repeat domain 17)	1	no change with or without drug	1.24	1.35	inactive
Cbs (cystathionine beta-synthase)	1	no change with or without drug	-1.57	0	inactive

Only “viability z-score without drug”, for 6 of the entries above:
Or1e16 (olfactory receptor family 1 subfamily E member 16): -0.17
Snrk (SNF related kinase): 2.53
Ptprcap: -0.34
Pdx1 (pancreatic and duodenal homeobox 1): 0
Slc35c1: 1.52
Slc19a1: 0.17

The results go on:
Gene	pool no.	combined z-score class	viability z-score with doxorubicin	viability z-score without drug	outcome
Gla (galactosidase, alpha)	1	no change with or without drug	1.69	-0.17	inactive
Prss30 (serine protease 30)	1	no change with or without drug	1.57	0.51	inactive
Thap2 (THAP domain containing, apoptosis associated protein 2)	1	low cell count with doxorubicin only	-2.25	-1.18	active
Cstf1 (cleavage stimulation factor, 3' pre-RNA, subunit 1)	1	no change with or without drug	-0.67	-1.69	inactive
Tnfsf18 (tumor necrosis factor (ligand) superfamily, member 18)	1	no change with or without drug	0.67	1.52	inactive
Dnajc28 (DnaJ heat shock protein family (Hsp40) member C28)	1	no change with or without drug	1.57	0	inactive
Mup5 (major urinary protein 5)	1	no change with or without drug	-0.45	-1.52	inactive
Ucn3 (urocortin 3)	1	no change with or without drug	-1.24	-0.17	inactive
Slc12a5	1	no change with or without drug	-0.11	0.84	inactive
Ogg1 (8-oxoguanine DNA-glycosylase 1)	1	no change with or without drug	0	0.17	inactive
Csmd1 (CUB and Sushi multiple domains 1)	1	no change with or without drug	-0.79	-0.34	inactive
Pigx (phosphatidylinositol glycan anchor biosynthesis, class X)	1	no change with or without drug	-0.9	-0.84	inactive
H2-Q2 (histocompatibility 2, Q region locus 2)	1	no change with or without drug	-1.35	-1.52	inactive
Ctsw (cathepsin W)	1	no change with or without drug	1.57	-1.52	inactive
Fabp6 (fatty acid binding protein 6)	1	no change with or without drug	1.12	-0.17	inactive
Ruvbl2 (RuvB-like AAA ATPase 2)	1	no change with or without drug	-1.12	0.51	inactive
Spmap2 (sperm microtubule associated protein 2)	1	no change with or without drug	-0.67	1.35	inactive
Spryd7 (SPRY domain containing 7)	1	low cell count with doxorubicin only	-2.92	-1.18	active
Tpsg1 (tryptase gamma 1)	1	no change with or without drug	1.12	0.51	inactive
Ythdf1 (YTH N6-methyladenosine RNA binding protein 1)	1	no change with or without drug	-1.35	0.84	inactive
Arrdc4 (arrestin domain containing 4)	1	no change with or without drug	-0.67	0.84	inactive
Cep131 (centrosomal protein 131)	1	no change with or without drug	-0.9	-0.17	inactive
Ncbp2as2 (Ncbp2 antisense 2 (head to head))	1	no change with or without drug	-1.12	0.17	inactive
Hspbp1	1	no change with or without drug	0.11	0.51	inactive
Ccdc69 (coiled-coil domain containing 69)	1	no change with or without drug	-0.22	1.18	inactive
Hipk3 (homeodomain interacting protein kinase 3)	1	no change with or without drug	0.22	1.35	inactive
Tnp2 (transition protein 2)	1	no change with or without drug	0.45	1.18	inactive
